PubChem BioAssay AID1159584, Peter MacCallum Cancer Centre | 2016

- Test: 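Genes that CDH1-null MCF10A cells selectively depend on to survive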 (primary screen)
- Cells: human MCF10A breast epithelial cells, parental and CDH1-null
- Reagents: siRNA against human genes
- Measured: 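Cell viability by CellTiter-Glo ATP luminescence, each line scaled to the mean of mock wells across plates, then CDH1-null over parental ratio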
- Reading the numbers: CDH1-null / parental viability ratio: higher = CDH1-null cells survive relatively better than parental; CDH1-null viability vs mock: higher = more viable CDH1-null cells; parental viability vs mock: higher = more viable parental cells
This is an unselected part of about 18,000 deposited reagents. The record does not give: the amount of reagent, the time to read-out.

gene	CDH1-null / parental viability ratio	CDH1-null viability vs mock (fraction of mock)	parental viability vs mock (fraction of mock)
CDK3	0.94	0.82	0.87
TMEM40	0.87	0.8	0.92
KIRREL3	1.17	0.96	0.82
SPAG8	1.17	1.15	0.98
FILIP1L	0.85	0.67	0.79
C10orf71	0.95	0.72	0.76
MED31	1.09	0.74	0.68
FTCD	0.94	0.68	0.72
EZH1	0.94	0.92	0.98

3 entries from above, reduced to “CDH1-null / parental viability ratio”.
KIRREL3	1.17
SPAG8	1.17
FILIP1L	0.85

More reagents:
gene	CDH1-null / parental viability ratio	CDH1-null viability vs mock (fraction of mock)	parental viability vs mock (fraction of mock)
OXCT2	0.99	0.76	0.77
SLC7A13	0.89	0.82	0.92
CALHM1	1.18	0.92	0.78
LIPN	0.9	0.66	0.73
C11orf42	0.89	0.5	0.56
VENTX	1.12	0.92	0.82
OR5H14	0.78	0.53	0.68
UCP3	0.87	0.9	1.04
CFAP43	0.6	0.48	0.8
USP22	0.97	0.74	0.76
APOBEC4	0.92	0.74	0.8
ZNF25	1.26	0.72	0.57
SNPH	1.54	1.11	0.72
SON	1.19	0.38	0.32
RPS6KA3	0.88	0.84	0.95
PPP3R1	1.16	0.74	0.64
RBP4	0.63	0.47	0.75
PDE6D	1.07	1.02	0.95
RNPC3	1.23	1.06	0.86
